No constants are given. Whether binding was seen depends on the method and setting. For part of these data: Tags and fused reporters may be left off the sequences shown.
Columns and labels:
Assay in all cases: SEC; Superdex 200 10/300 GL, 20 mM Tris-HCl buffer (pH 6.8 or 8.0), no salt, 0.5 mL/min; 75-100 µg ALOX protein in 100 µL (10-13 µM); hydrodynamic radius estimated with calibration proteins; self-association, monomer against dimer; both purified
[1] = target: wild-type rabbit ALOX15 (rabbit) (UniProt P12530)
[2] = target: rabbit ALOX15 His585Glu mutant (rabbit) (UniProt P12530)
[3] = target: rabbit ALOX15 His585Lys mutant (rabbit) (UniProt P12530)

B1: wild-type rabbit ALOX15 (enzyme, UniProt P12530 2-663)
chain: GVYRVCVSTGASIYAGSKNKVELWLVGQHGEVELGSCLRPTRNKEEEFKVNVSKYLGSLLFVRLRKKHFLKEDAWFCNWISVQALGAAEDKYWFPCYRWVVGDGVQSLPVGTGCTTVGDPQGLFQKHREQELEERRKLYQWGSWKEGLILNVAGSKLTDLPVDERFLEDKKIDFEASLAWGLAELALKNSLNILAPWKTLDDFNRIFWCGRSKLARRVRDSWQEDSLFGYQFLNGANPMLLRRSVQLPARLVFPPGMEELQAQLEKELKAGTLFEADFALLDNIKANVILYCQQYLAAPLVMLKLQPDGKLMPMVIQLHLPKIGSSPPPLFLPTDPPMVWLLAKCWVRSSDFQVHELNSHLLRGHLMAEVFTVATMRCLPSIHPVFKLIVPHLRYTLEINVRARNGLVSDFGIFDQIMSTGGGGHVQLLQQAGAFLTYRSFCPPDDLADRGLLGVESSFYAQDALRLWEIISRYVQGIMGLYYKTDEAVRDDLELQSWCREITEIGLQGAQKQGFPTSLQSVAQACHFVTMCIFTCTGQHSSIHLGQLDWFTWVPNAPCTMRLPPPTTKDATLETVMATLPNLHQSSLQMSIVWQLGRDQPIMVPLGQHQEEYFSGPEPRAVLEKFREELAIMDKEIEVRNEKLDIPYEYLRPSIVENSVAI
binding [1]: no binding (tested: 10–13 µM)

B2: rabbit ALOX15 His585Glu mutant (enzyme, UniProt P12530 2-663)
chain: GVYRVCVSTGASIYAGSKNKVELWLVGQHGEVELGSCLRPTRNKEEEFKVNVSKYLGSLLFVRLRKKHFLKEDAWFCNWISVQALGAAEDKYWFPCYRWVVGDGVQSLPVGTGCTTVGDPQGLFQKHREQELEERRKLYQWGSWKEGLILNVAGSKLTDLPVDERFLEDKKIDFEASLAWGLAELALKNSLNILAPWKTLDDFNRIFWCGRSKLARRVRDSWQEDSLFGYQFLNGANPMLLRRSVQLPARLVFPPGMEELQAQLEKELKAGTLFEADFALLDNIKANVILYCQQYLAAPLVMLKLQPDGKLMPMVIQLHLPKIGSSPPPLFLPTDPPMVWLLAKCWVRSSDFQVHELNSHLLRGHLMAEVFTVATMRCLPSIHPVFKLIVPHLRYTLEINVRARNGLVSDFGIFDQIMSTGGGGHVQLLQQAGAFLTYRSFCPPDDLADRGLLGVESSFYAQDALRLWEIISRYVQGIMGLYYKTDEAVRDDLELQSWCREITEIGLQGAQKQGFPTSLQSVAQACHFVTMCIFTCTGQHSSIHLGQLDWFTWVPNAPCTMRLPPPTTKDATLETVMATLPNLEQSSLQMSIVWQLGRDQPIMVPLGQHQEEYFSGPEPRAVLEKFREELAIMDKEIEVRNEKLDIPYEYLRPSIVENSVAI
binding [2]: no binding (tested: 10–13 µM)

B3: rabbit ALOX15 His585Lys mutant (enzyme, UniProt P12530 2-663)
chain: GVYRVCVSTGASIYAGSKNKVELWLVGQHGEVELGSCLRPTRNKEEEFKVNVSKYLGSLLFVRLRKKHFLKEDAWFCNWISVQALGAAEDKYWFPCYRWVVGDGVQSLPVGTGCTTVGDPQGLFQKHREQELEERRKLYQWGSWKEGLILNVAGSKLTDLPVDERFLEDKKIDFEASLAWGLAELALKNSLNILAPWKTLDDFNRIFWCGRSKLARRVRDSWQEDSLFGYQFLNGANPMLLRRSVQLPARLVFPPGMEELQAQLEKELKAGTLFEADFALLDNIKANVILYCQQYLAAPLVMLKLQPDGKLMPMVIQLHLPKIGSSPPPLFLPTDPPMVWLLAKCWVRSSDFQVHELNSHLLRGHLMAEVFTVATMRCLPSIHPVFKLIVPHLRYTLEINVRARNGLVSDFGIFDQIMSTGGGGHVQLLQQAGAFLTYRSFCPPDDLADRGLLGVESSFYAQDALRLWEIISRYVQGIMGLYYKTDEAVRDDLELQSWCREITEIGLQGAQKQGFPTSLQSVAQACHFVTMCIFTCTGQHSSIHLGQLDWFTWVPNAPCTMRLPPPTTKDATLETVMATLPNLKQSSLQMSIVWQLGRDQPIMVPLGQHQEEYFSGPEPRAVLEKFREELAIMDKEIEVRNEKLDIPYEYLRPSIVENSVAI
binding [3]: no binding (tested: 10–13 µM)

Reference: paper PMC8004969
